Measured data: PubChem BioAssay AID743121 (NCATS, 2013)
Here is an unselected part of about 26,000 reagents tested. 167 of all reagents (0.63%) count as active. 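Calls are per gene from RSA p-values that are not deposited; an individual active-marked siRNA can sensitise only weakly.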 The numbers tell different reagents against one gene apart.

Test: 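Genes whose silencing strengthens cell killing by camptothecin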 (primary screen)
Cell system: MDA-MB-231 cells, a human breast cancer line
Reagent: single siRNA against human genes, 20 nM siRNA (0.8 pmol per well)
Duration: 120 h (drug added 48 h after transfection, read 72 h later)
Treatment: camptothecin 20 nM (about EC30) for 72 h; vehicle 0.1% DMSO in parallel plates
Read-out: 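Cell viability by ATP luminescence (CellTiter-Glo) as % of non-targeting siRNA wells, and the log2 ratio of viability without drug over viability with camptothecin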
Direction: log2 vehicle/camptothecin viability: higher = stronger sensitisation to camptothecin; viability with camptothecin and viability without drug: higher = more viable cells
Active means: 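Active genes have an RSA gene-level p-value below 0.001, computed from the ratios of their separate siRNAs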

gene | reagent | log2 vehicle/camptothecin viability | viability with camptothecin (% of control) | viability without drug (% of control) | Call
GMEB2 (glucocorticoid modulatory element binding protein 2) | 1 | -0.623 | 37.2 | 24.2 | inactive
GMEB2 (glucocorticoid modulatory element binding protein 2) | 2 | 0.0469 | 94.2 | 97.3 | inactive
GMEB2 (glucocorticoid modulatory element binding protein 2) | 3 | -0.281 | 76.7 | 63.2 | inactive
GMEB2 (glucocorticoid modulatory element binding protein 2) | 4 | -0.0852 | 64.1 | 60.5 | inactive
CCNA1 (cyclin A1) | 1 | -0.199 | 71.2 | 62 | inactive
CCNA1 (cyclin A1) | 2 | -0.267 | 110 | 91.4 | inactive
CCNA1 (cyclin A1) | 3 | 0.117 | 84.2 | 91.3 | inactive
LRRC4 (leucine rich repeat containing 4) | 1 | -0.0172 | 65.6 | 64.8 | inactive
LRRC4 (leucine rich repeat containing 4) | 2 | -0.323 | 103 | 82 | inactive
LRRC4 (leucine rich repeat containing 4) | 3 | 0.282 | 51.6 | 62.8 | inactive
GNG8 (G protein subunit gamma 8) | 1 | 0.308 | 3.69 | 4.56 | inactive
GNG8 (G protein subunit gamma 8) | 2 | -0.195 | 44.8 | 39.2 | inactive
GNG8 (G protein subunit gamma 8) | 3 | -0.324 | 103 | 82 | inactive
GNG8 (G protein subunit gamma 8) | 4 | 0.00943 | 50.7 | 51 | inactive
ANAPC10 (anaphase promoting complex subunit 10) | 1 | 0.465 | 74.8 | 103 | inactive
ANAPC10 (anaphase promoting complex subunit 10) | 2 | -0.0454 | 87 | 84.3 | inactive
ANAPC10 (anaphase promoting complex subunit 10) | 3 | -0.776 | 61 | 35.6 | inactive
ANAPC10 (anaphase promoting complex subunit 10) | 4 | -0.23 | 70.3 | 59.9 | inactive
KCNA10 (potassium voltage-gated channel subfamily A member 10) | 1 | -0.318 | 106 | 85.1 | inactive
KCNA10 (potassium voltage-gated channel subfamily A member 10) | 2 | -0.407 | 78.1 | 58.9 | inactive
KCNA10 (potassium voltage-gated channel subfamily A member 10) | 3 | -0.256 | 65.9 | 55.2 | inactive
BAG2 (BAG cochaperone 2) | 1 | -0.0426 | 97.9 | 95.1 | inactive
BAG2 (BAG cochaperone 2) | 2 | 0.0451 | 104 | 108 | inactive
BAG2 (BAG cochaperone 2) | 3 | -0.376 | 41.9 | 32.3 | inactive
BAG2 (BAG cochaperone 2) | 4 | -0.108 | 106 | 98.6 | inactive
POFUT1 (protein O-fucosyltransferase 1) | 1 | -0.203 | 112 | 97.7 | inactive
POFUT1 (protein O-fucosyltransferase 1) | 2 | -0.165 | 119 | 106 | inactive
POFUT1 (protein O-fucosyltransferase 1) | 3 | -0.519 | 61.9 | 43.2 | inactive
POFUT1 (protein O-fucosyltransferase 1) | 4 | -0.153 | 47.8 | 43 | inactive
IFNG (interferon gamma) | 1 | -0.133 | 101 | 91.9 | inactive
IFNG (interferon gamma) | 2 | -0.145 | 105 | 95.2 | inactive
IFNG (interferon gamma) | 3 | -0.0654 | 76.3 | 72.9 | inactive
IFNG (interferon gamma) | 4 | -0.206 | 82.6 | 71.6 | inactive
M6PR (mannose-6-phosphate receptor, cation dependent) | 1 | 0.0482 | 105 | 109 | inactive
M6PR (mannose-6-phosphate receptor, cation dependent) | 2 | -0.204 | 127 | 110 | inactive
M6PR (mannose-6-phosphate receptor, cation dependent) | 3 | -0.341 | 61.6 | 48.7 | inactive
M6PR (mannose-6-phosphate receptor, cation dependent) | 4 | 0.000425 | 83.8 | 83.8 | inactive
SLC4A1 | 1 | -0.151 | 67.2 | 60.5 | inactive
SLC4A1 | 2 | -0.355 | 76 | 59.4 | inactive
SLC4A1 | 3 | 0.0836 | 70.2 | 74.4 | inactive
SLC4A1 | 4 | -0.174 | 46.2 | 40.9 | inactive
FLRT2 (fibronectin leucine rich transmembrane protein 2) | 1 | -0.109 | 98.3 | 91.2 | inactive
FLRT2 (fibronectin leucine rich transmembrane protein 2) | 2 | -0.607 | 75.6 | 49.6 | inactive
FLRT2 (fibronectin leucine rich transmembrane protein 2) | 3 | -0.444 | 85.9 | 63.1 | inactive
FLRT2 (fibronectin leucine rich transmembrane protein 2) | 4 | 0.0466 | 62.7 | 64.7 | inactive
OR2J2 (olfactory receptor family 2 subfamily J member 2) | 1 | -0.358 | 81.3 | 63.4 | inactive
OR2J2 (olfactory receptor family 2 subfamily J member 2) | 2 | 0.145 | 93.6 | 103 | inactive
OR2J2 (olfactory receptor family 2 subfamily J member 2) | 3 | 0.0584 | 32.6 | 34 | inactive
OR2J2 (olfactory receptor family 2 subfamily J member 2) | 4 | 0.234 | 83.8 | 98.6 | inactive
SLC4A4 | 1 | 0.28 | 54.2 | 65.8 | inactive
SLC4A4 | 2 | -0.392 | 85.1 | 64.8 | inactive
SLC4A4 | 3 | -0.0241 | 33.6 | 33 | inactive
SLC4A4 | 4 | -0.0356 | 51.8 | 50.6 | inactive
IL17D (interleukin 17D) | 1 | -0.117 | 39.2 | 36.2 | inactive
IL17D (interleukin 17D) | 2 | 0.0188 | 55.7 | 56.5 | inactive
IL17D (interleukin 17D) | 3 | -0.237 | 56.8 | 48.1 | inactive
IL17D (interleukin 17D) | 4 | -0.292 | 83.8 | 68.4 | inactive
CCL24 (C-C motif chemokine ligand 24) | 1 | 0.0244 | 18.4 | 18.7 | inactive
CCL24 (C-C motif chemokine ligand 24) | 2 | 0.677 | 26.9 | 42.9 | inactive
CCL24 (C-C motif chemokine ligand 24) | 3 | 0.101 | 68.9 | 73.9 | inactive
CCL24 (C-C motif chemokine ligand 24) | 4 | -0.25 | 76.9 | 64.7 | inactive
CA2 (carbonic anhydrase 2) | 1 | -0.527 | 69.6 | 48.3 | inactive
CA2 (carbonic anhydrase 2) | 2 | -0.132 | 108 | 98.4 | inactive
CA2 (carbonic anhydrase 2) | 3 | -0.153 | 101 | 90.5 | inactive
ACADL (acyl-CoA dehydrogenase long chain) | 1 | 0.0714 | 39.6 | 41.6 | inactive
ACADL (acyl-CoA dehydrogenase long chain) | 2 | -0.0914 | 88.1 | 82.7 | inactive
ACADL (acyl-CoA dehydrogenase long chain) | 3 | -0.198 | 90.4 | 78.8 | inactive
ACADL (acyl-CoA dehydrogenase long chain) | 4 | -0.153 | 53.1 | 47.7 | inactive
PLCE1 (phospholipase C epsilon 1) | 1 | -0.259 | 51.1 | 42.7 | inactive
PLCE1 (phospholipase C epsilon 1) | 2 | -0.262 | 94.4 | 78.7 | inactive
PLCE1 (phospholipase C epsilon 1) | 3 | -0.494 | 61 | 43.3 | inactive
PLCE1 (phospholipase C epsilon 1) | 4 | -0.123 | 87.6 | 80.4 | inactive
PIP4K2B (phosphatidylinositol-5-phosphate 4-kinase type 2 beta) | 1 | -0.293 | 87.8 | 71.7 | inactive
PIP4K2B (phosphatidylinositol-5-phosphate 4-kinase type 2 beta) | 2 | 0.186 | 17.4 | 19.8 | inactive
PIP4K2B (phosphatidylinositol-5-phosphate 4-kinase type 2 beta) | 3 | -0.408 | 89.2 | 67.2 | inactive
PIP4K2B (phosphatidylinositol-5-phosphate 4-kinase type 2 beta) | 4 | -0.121 | 105 | 96.3 | inactive
ACTR3 (actin related protein 3) | 1 | -0.402 | 61.1 | 46.2 | inactive
ACTR3 (actin related protein 3) | 2 | -0.306 | 61 | 49.4 | inactive
ACTR3 (actin related protein 3) | 3 | -0.28 | 93.7 | 77.2 | inactive
ACTR3 (actin related protein 3) | 4 | -0.269 | 86.9 | 72.1 | inactive
GTF2H1 (general transcription factor IIH subunit 1) | 1 | -0.137 | 44.5 | 40.5 | inactive
GTF2H1 (general transcription factor IIH subunit 1) | 2 | 0.236 | 72.4 | 85.2 | inactive
GTF2H1 (general transcription factor IIH subunit 1) | 3 | -0.438 | 95.1 | 70.2 | inactive
GTF2H1 (general transcription factor IIH subunit 1) | 4 | 0.153 | 78.8 | 87.7 | inactive
SPRTN (SprT-like N-terminal domain) | 1 | 0.12 | 93.4 | 101 | inactive
SPRTN (SprT-like N-terminal domain) | 2 | -0.103 | 113 | 106 | inactive
SPRTN (SprT-like N-terminal domain) | 3 | 0.067 | 101 | 106 | inactive
